Data as given in PubChem BioAssay AID1259284 (Sanger Institute, 2017).

Screen: 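Kinase knock-downs that cut colorectal cancer cell growth alone or with targeted drugs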 (primary screen)
System: SW48 human colorectal cancer cells
Reagent: siRNA pool against human genes
Challenge: anchor drug BYL719 at 1 µM, cetuximab at 5 µg/ml or trametinib at 10 nM, or DMSO vehicle alone
Measured: 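Cell viability relative to non-targeting pool wells, replicate mean, with robust z-scores and drug synergy scores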
Scale: robust z-score, no drug: higher = more cells survive knock-down; viability, no drug: higher = more viable cells; synergy with BYL719: higher = stronger combined killing with drug
Active means: 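Called essential when the robust z-score of viability without drug falls below -3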
Calls: active = essential without drug; inactive = no change without drug
Here is one part, drawn at random, of 794 reagents tested. In the full data, 16 (2%) are marked active. 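Calls concern knock-down without drug only; drug synergy was judged apart, with scores above 0.15 taken as synergy.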 A number with no mark means an inactive call. No viability above 1 is reported: the scale is capped. Not all columns of the deposit are shown. The record does not give: the amount of reagent, the time to read-out.

gene knocked down	robust z-score, no drug	viability, no drug (fraction of control)	synergy with BYL719
MERTK	0.426	1	-0.11
SGK3	0.426	1	-0.14
PDGFRA	0.426	1	-0.204
MECOM	0.426	1	-0.128
PAK4	0.426	1	-0.236
TRIB3	0.426	1	-0.254
HK1	0.426	1	-0.0759
PRKAB1	-0.638	0.909	-0.0428
DGUOK	0.426	1	-0.279
STK17B	0.197	0.98	-0.15
PFKFB4	0.426	1	-0.233
COASY	0.212	0.982	-0.0633
PDGFRL	0.426	1	-0.174
GUCY2EP	0.426	1	-0.0908
PKMYT1	0.426	1	-0.0632
TTK	-5.92 (active)	0.455	-0.25
LTK	0.426	1	-0.148
FCSK	0.426	1	-0.241

Copied from the list.
Result for FCSK in “synergy with BYL719”: -0.241
For “synergy with BYL719”, HK1 is entered as -0.0759
For “robust z-score, no drug”, STK17B has 0.197
PKMYT1, robust z-score, no drug: 0.426
Value of COASY under “synergy with BYL719”: -0.0633
TRIB3, viability, no drug (fraction of control): 1

The results go on:
gene knocked down	robust z-score, no drug	viability, no drug (fraction of control)	synergy with BYL719
ALDH18A1	0.211	0.982	-0.286
ADK	0.426	1	-0.272
PRKACB	0.426	1	-0.175
CDK20	0.426	1	0.0341
CKS2	0.426	1	-0.206
PDGFRB	-1.73	0.815	-0.0849
AK2	0.426	1	-0.161
MATK	0.426	1	-0.359
ERBB4	0.426	1	-0.197
AK4	0.426	1	-0.269
CDK16	-0.578	0.914	-0.124
TSSK4	0.426	1	-0.0998
PDK2	0.426	1	-0.14
BRAF	0.426	1	-0.216
STK35	0.426	1	-0.157
CDK5	0.426	1	-0.185
CMPK1	0.426	1	-0.236
POLR2B	-4.34 (active)	0.591	-0.337
IP6K3	0.426	1	-0.0331
EFNA3	0.426	1	-0.0666
PAK3	0.426	1	-0.122
PIK3CA	-1.3	0.852	-0.226
MYLK4	0.426	1	-0.0229
RBKS	0.426	1	-0.277
CDK17	0.426	1	-0.0857
MET	0.426	1	-0.306
CAMKK2	0.426	1	-0.256
IPMK	0.154	0.977	-0.162
TAOK1	-0.967	0.88	-0.311
CDC73	0.426	1	-0.318
NAGK	-1.04	0.875	-0.236
FGFR2	0.426	1	0.00781
